Measured values reported in article doi:10.1101/156513.
Results are given in words; binding and its absence hold for the method and conditions named. Binding seen in cells or lysates may run through a third protein. Binding can be weak; no strength is given. Where a sequence is shown, tags or fusion partners need not be part of it.

Molecular target: GST fused to the C-terminal region of occludin (UniProt Q61146)
Assay: pull-down

B1: GFP-tagged ZPSG region of ZO-2 (ZPSG-2, 509-880) (domain or fragment, UniProt Q9UDY2 509-880)
chain: NTKMVRFKKGDSVGLRLAGGNDVGIFVAGIQEGTSAEQEGLQEGDQILKVNTQDFRGLVREDAVLYLLEIPKGEMVTILAQSRADVYRDILACGRGDSFFIRSHFECEKETPQSLAFTRGEVFRVVDTLYDGKLGNWLAVRIGNELEKGLIPNKSRAEQMASVQNAQRDNAGDRADFWRMRGQRSGVKKNLRKSREDLTAVVSVSTKFPAYERVLLREAGFKRPVVLFGPIADIAMEKLANELPDWFQTAKTEPKDAGSEKSTGVVRLNTVRQIIEQDKHALLDVTPKAVDLLNYTQWFPIVIFFNPDSRQGVKTMRQRLNPTSNKSSRKLFDQANKLKKTCAHLFTATINLNSANDSWFGSLKDTIQHQQG
Question: Which binding does the source give for B1 here?
Answer: binds
